# Laboratory results: paper PMC9170038
# For some of these results: Protein sequences can lack the tags named with them. For some of these results: The exact form of at least one protein or probe is not confirmed. For some of these results: Weaker means in comparison with the reference protein, sequence or condition of that experiment. For some of these results: At least one verdict rests on a figure or table, not on a statement of the authors.
# Legend:
# [1] = biological target: T1, MS2 coat protein, dlFG mutant del68-81insG (Escherichia phage MS2) (UniProt P03612); assay: binding assay; settings: 4 mM Mg2+, RNA-MaP array, 100 mM Tris-HCl pH 7.5, 80 mM KCl, 4 mM MgCl2, 0.1 mg/mL BSA, 1 mM DTT, 0.01 mg/mL yeast tRNA, 0.01% Tween-20, protein 1.5 nM to 3 uM, 37 C (Table S3), purified recombinant protein
# T1 sequence (looked up, limits assumed): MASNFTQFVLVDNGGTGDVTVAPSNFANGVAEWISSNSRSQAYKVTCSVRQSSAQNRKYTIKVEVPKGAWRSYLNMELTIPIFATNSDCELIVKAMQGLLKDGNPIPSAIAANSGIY
# [2] = biological target: MS2 coat protein (bacteriophage MS2) (UniProt P03612); assay: flow cytometry of RNA-coated beads; settings: RNA-MaP: 100 mM Tris-HCl pH 7.5, 80 mM KCl, 4 mM MgCl2, 0.1 mg/mL BSA, 1 mM DTT, 0.01 mg/mL yeast tRNA, 0.01% Tween-20, protein details: fluorescently labeled
# [3] = no ligand, variant of MS2 control
sequence,measurement,setting,value
AGAGUCACAUAAGGAUAUCCCUUGACGGGAACCAAGUGAUGUUUGGUUAGACGACCUCUUAUCACGGGAGAAGGUAUAUUUGUAU [Eterna 1576 (Same State - FMN B)],Kd,[1]; [3],> 3 µM
AAUAAAUAUAAAUUUUAUUUGUCGUAGGAUAUGGGUGACAUGAGGAUCACCCAUGUUGCAGACGACCAGAAGGGCGGCGGAUAU [Eterna 6425687 (Small Loop Same State NG 3)],Kd,[1]; FMN 200 uM,> 3 µM
AAUUUAAUACAUGAGGAUCACCCAUGUAAUACUUGUAAGAUCAAGGAUAUCAGCUCGUUUAGAGCUGAGAAGGUGAUCACAUGU [Eterna 5958801 (Same State NG 3)],Kd,[1]; no ligand,> 3 µM
AUGAGGGAAGUAGGAUAUGAUCAAGACAUGAGGAUCACCCAUGUAAUGAGGGUGUGUGUCUUUGUUCAGAAGGACUUGUGUCAA [Eterna 6148143 (Exclusion NG 2)],Kd,[1]; FMN 200 uM,> 3 µM
AUAAUGUGAGGAUAUCAGUCGACUAGCUGCGGCUAGUCGACUGAGAAGGCACAUGAGGAUCACCCAUGUAGAUC [Eterna 5971727 (Exclusion 4)],Kd,[1]; FMN 200 uM,> 3 µM
CCGAAUGUCACAGGAUAUGGUCCGGGCACGGGACCAGAAGGGUGAUCUCACAUGAGGAUCACCCAUGUGCAGGCGUUAGGCUGC [Eterna 6148459 (Same State NG 1)],Kd,[1]; no ligand,> 3 µM
UGUAUGUGAUCUGAUACCAGUCCAACUGGUAAAGCAUGAGGAUCACCCAUGUAAAAUUGGGACCCUUGGCAGCAGAUCGCAUACU [Eterna 7730098 (Same State - Theophylline B)],Kd,[1]; [3],> 3 µM
CAACGUACCAGAGGAUAUGAUUGUGGGUAAAGAGCGCUCAGGUGGCUACAUGAGGAUCACCCAUGUCAGAAGGCUGGAGUUCAA [Eterna 6148029 (Exclusion NG 2)],Kd,[1]; no ligand,> 3 µM
AGAUGCAUGUAGAAGGGAGGAUCACCAGUGUACUCAGGAUAUACAUGUGGUGACAUGAGGAUCACCCAUGUAUGCCAGAAGUUC [Eterna 6429645 (Inverted Same State NG 1)],Kd,[1]; no ligand,> 3 µM
GGCCCGGACUUGGAAUGGGUGUUUCCCUCACGAGGACCGGUACGGCCGCCACUCGAAGACAUGAGGAUCACCCAUGUAGUCGACA [Eterna 7727150 (Exclusion - Tryptophan A)],Kd,[1]; no ligand,> 3 µM
GGGUAUGUCGCAGAAGUAGCUAUCGGAGGAUAUUCAUACCGGAAACGGACAUGAGGAUCACCCAUGUGGCGAAAGCCUUGGGAGAAGGCUGAUAGCUACAACUGCGACAUACCCAAAAAAAAAAAAAAAAAAAAAAAAA [BC_JL-sng2-3.09],binding result,[2]; no FMN (OFF state),binds more weakly
same,binding result,[2]; with FMN (ON state),binds
GGUACCAUCGCAGGAUAUGCUAUCCUUUGGGUAGCAGAAGGGUGAUAACAUGAGGAUCACCCAUGUGGUACCGGGCGUGAGCCC [Eterna 6130126 (Same State NG 1)],Kd,[1]; no ligand,> 3 µM
